{"source": "patent US20250382330A1", "about": "“IMMUNOLOGICALLY ACTIVE POLYPEPTIDE” (CDRES PHARMA LLC, priority 2022, published 2025)", "key": {"[1]": {"system": "collagen-induced arthritis in Lewis rats", "assay": "Collagen-induced arthritis in Lewis rats, daily arthritis index", "assay_type": "in vivo, Lewis rat", "description": "A. Collagen-Induced Lewis Rat Model of Rheumatoid Arthritis (RA)-PeptideX2 (SEQ ID NO: 1). The Lewis rat system is an art-accepted in vivo animal model of collagen-induced rheumatoid arthritis. Lewis rats obtained from a commercial laboratory supply vendor were maintained during a quarantine period under standard animal care conditions and found to be free of any clinical signs of disease or distress. Bovine type II collagen (10 mg, Chondrex, Inc., Redmond, WA) was dissolved in 2.5 ml 0.1M acetic acid and stirred overnight at 4-8° C. in the dark, and then one ml of this collagen solution was emulsified in one ml of incomplete Freund's adjuvant (ICFA, Sigma, St. Louis, MO) on an ice bath. On day zero, each of five rats was injected with 0.2 ml of collagen/ICFA emulsion at two sites and then observed for the next 30 days with the arthritis index (AI) calculated daily using the 16-point scoring method of Bevaart et al. (2010 Meths. Mol. Biol. 602:181: 0 points, no joint swelling or edema; 1 point, slight edema and erythema limited to foot and/or ankle; 2 points, edema and erythema in the toes and most ankle joints; 3 points, severe edema and erythema in the paw below the ankle joint; 4 points, edema and erythema of all four paws including the ankle joint). […]\n6 Lewis rats (ENVIGO, female, 190-210g) were received, individually examined, and housed. […] Rat weights were recorded daily. […]"}, "[2]": {"assay": "Stability and aggregation of peptide solutions (turbidity, flocculence)", "assay_type": "physicochemical", "conditions": "solutions of pH around 6.0"}}, "note": "At least one peptide structure holds a part that was inferred or is arguable (an end, a ring closure or a residue). Ends that are not written are not given here.", "data": [{"substance": "YLQMN [pentide, YLQMN]", "values": [{"measurement": "arthritis index", "setting": "[1]; 500 μg/ml, daily dosing day 15 thru day 30", "result": "some anti-inflammatory benefit"}, {"measurement": "effect in in vivo rheumatoid arthritis (RA) animal model", "setting": "[1]; summary statement, no dose given", "result": "protective"}, {"measurement": "aggregation in solution", "setting": "[2]", "result": "did not aggregate"}]}]}
